Data source: PubChem BioAssay AID1671195 (Yale University, 2021)

Test: 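Knockdowns that increase or decrease uptake of fluorescent LDL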 (primary screen)
Cells: human Huh7 hepatoma cells
Reagent: siRNA pool against human genes, 18 nM
Time to read-out: about 2 to 2.5 days of knockdown, then 8 h LDL uptake
Conditions: DiI-labelled LDL at 30 µg/ml for 8 h, in lipoprotein-deficient serum medium
Measurement: 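Per-cell DiI-LDL intensity by automated imaging; well means scaled to the plate median and given as a robust z-score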
Reading the numbers: robust z-score: higher = more LDL uptake after knockdown
Rule for the call: 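a gene counts as active if at least two replicate z-scores exceed ±2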
The whole screen tested about 22,000 reagents; below is an unselected part. About 1,510 of them (6.9%) count as active. 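Active includes knockdowns raising or lowering LDL uptake; positive z-scores mean more uptake, negative mean less.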

The opening 3 entries as a preview:
gene | robust z-score, replicate 1 | robust z-score, replicate 2 | robust z-score, replicate 3 | Outcome
OR7A10 | -0.282 | -0.134 | 0.0238 | inactive
PDCD4 | 0.689 | 1.46 | -0.701 | inactive
LOC441647 (retired record) | 0.127 | 0.494 | 0.221 | inactive

The listing, from the first entry:
gene | robust z-score, replicate 1 | robust z-score, replicate 2 | robust z-score, replicate 3 | Outcome
OR7A10 | -0.282 | -0.134 | 0.0238 | inactive
PDCD4 | 0.689 | 1.46 | -0.701 | inactive
LOC441647 (retired record) | 0.127 | 0.494 | 0.221 | inactive
AHCY | 0.072 | -0.0256 | -0.297 | inactive
TDRD6 | -0.857 | 0.0165 | 0.444 | inactive
ESM1 | 0.592 | 0.243 | 2.98 | inactive
LOC439970 (retired record) | 1.18 | 0.654 | 0.578 | inactive
GPR153 | 0.602 | 0.453 | 0.571 | inactive
MAL2 | -0.247 | -1.16 | -0.858 | inactive
TAAR5 | 0.136 | 0.42 | 0.361 | inactive
SART3 | -1.11 | 0.154 | -2.21 | inactive
ZNF347 | -1.02 | -1.03 | -0.952 | inactive
ACVR1B | 0.875 | -0.013 | -0.529 | inactive
UQCR10 | -0.678 | -0.568 | 0.0629 | inactive
TAF7 | 1.85 | 1.3 | 1.31 | inactive
PSPC1 | 0.147 | -0.134 | -0.196 | inactive
HENMT1 | 0.712 | 0.173 | -0.228 | inactive
PCDHGA3 | 0.789 | 0.48 | 0.427 | inactive
CGREF1 | 0.0582 | -0.0575 | 0.116 | inactive
DIPK2A | 1.87 | 2.35 | 2.03 | active
AKR1D1 | -0.0824 | 0.421 | 0.0279 | inactive
MMP23B | -0.832 | -0.165 | 1.08 | inactive
PARP6 | -2.67 | -1.53 | -1.49 | inactive
LINC00324 | 0.0619 | 0.18 | -0.0283 | inactive
RPL7P6 | 1.91 | 1.9 | 2.56 | active
EIF4ENIF1 | -0.818 | -0.364 | -1.68 | inactive
NXPE2 | -0.324 | -0.23 | -1.06 | inactive
GNL3L | 0.892 | 0.846 | -1.72 | inactive
